These results are taken from PMC11102866.

For at least one entry, the source does not settle the construct or the ends of the probe. For part of these data: A weaker result is weaker than the reference pair of the same experiment. For part of these data: At least one verdict was read from the data and is not stated in words by the source.

Data set [1] concerns NR5A2 wild type + histone octamer. Nature of the data set: SeEN-seq (EMSA of nucleosome library followed by sequencing). Conditions: 0.8 uM human NR5A2; reconstituted with mouse histones H2A, H2B, H3.3 and H4; 20 mM Tris-HCl pH 7.5, 120 mM NaCl, 1 mM MgCl2, 10 uM ZnCl2, 1 mM DTT, 100 ug/ml BSA, room temperature, 30 min; 0.1 uM nucleosome library; high values mean tight binding; recombinant protein; DNA in a nucleosome; counted as no binding; scale: log2 enrichment. (Mobility shift assays separate free from complexed probe on a gel.)

Data set [2] deals with NR5A2 wild type (Homo sapiens) (UniProt O00482). Nature of the data set: EMSA. The conditions noted are these: 10 uM ZnCl2, 1 mM MgCl2; EMSA: 20 mM Tris-HCl pH 7.5, 120 mM NaCl, 1 mM MgCl2, 10 uM ZnCl2, 1 mM DTT, 100 ug/ml BSA, room temperature, 30 min; 50 nM DNA or nucleosome; recombinant protein.
Data set [3] concerns the target NR5A2 R162A (Homo sapiens) (UniProt O00482). Nature of the data set: EMSA. The conditions noted are these: slightly reduced; EMSA: 20 mM Tris-HCl pH 7.5, 120 mM NaCl, 1 mM MgCl2, 10 uM ZnCl2, 1 mM DTT, 100 ug/ml BSA, room temperature, 30 min; 50 nM DNA or nucleosome; recombinant protein.

For the sequence “ATCCTGGTCAAGGCCAGTGCCGAGGCCGCTCAATTGGTCGTAGACAGCTCTAGCACCGCTTAAACGCACGTACGCGCTGTCCCCCGCGTTTTAACCGCCAAGGGGATTACTCCCTAGTCTCCAGGCACGTGTCAGATATATACATCCTGTGAT (double strand) [5]”, the binding signal in data set [1] is -0.0162.

“GAGAGAGTCAAGGCCATGGCTCACT (double strand) [25 bp DNA with Nr5a2 consensus motif]”: the binding result in data set [2] was “binds”; in data set [3], “binds more weakly”.
